Assay results from PubChem BioAssay AID328 (DTP/NCI, 2004).
The list shows only some results of the screen, not a fair sample: it gathers tests that were run many times, whatever their T/C, doses with no T/C, and many T/C values between a quarter and a half above the control. Other doses and runs of a compound stand elsewhere. T/C is the treated group as % of the vehicle group. Some doses have a count of surviving animals in place of a T/C: the source files T/C as zero there, which appears to mark a toxic dose or a test without result, not a measured value. Some doses without a T/C left all or most animals alive at the check, yet need not have been tolerated: survival well below the control is almost never listed, so the zero probably covers shortened survival too. Counts of survivors are from the toxicity check (mostly the fifth day) where no day follows; animals may have died later. Schedule codes are those of the source, taken here to give the interval after Q, in days (D) or hours (H), and the number of doses after X. Some doses were run more than once; the results are listed from low to high. Where survival is the endpoint, the PubChem record calls one and a half times the control and up active, and a quarter to a half above the control has no call in these data; cut-offs in other NCI protocols can differ. Some T/C values carry the count of animals alive at the toxicity check (mostly the fifth day); where none is given, no animal had died by that day.

Tested on: BDF1 mice, P388 leukemia ip, median survival T/C
Assay: NCI In Vivo Anticancer Drug Screen. Data for tumor model P388 Leukemia (intraperitoneal) in B6D2F1 (BDF1) mice
Conditions: T/C endpoint: median survival time, higher T/C = longer survival
In short: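 Transplantable tumour in mice; compound vs vehicle dosing; survival scored; ratio of treated to control reported.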

[1] = dose: 100.0 mg/kg/injection, schedule: Q01DX009 (ip), vehicle: saline
[2] = dose: 400.0 mg/kg/injection, schedule: Q04DX003 (ip), vehicle: saline
[3] = dose: 75.0 mg/kg/injection, schedule: Q01DX009 (ip), vehicle: saline
[4] = dose: 37.5 mg/kg/injection, schedule: Q01DX009 (ip), vehicle: saline
[5] = dose: 50.0 mg/kg/injection, schedule: Q01DX009 (ip), vehicle: saline with Tween-80
[6] = dose: 100.0 mg/kg/injection, schedule: Q01DX009 (ip), vehicle: saline with Tween-80
[7] = dose: 200.0 mg/kg/injection, schedule: Q01DX009 (ip), vehicle: saline with Tween-80
[8] = dose: 50.0 mg/kg/injection, schedule: Q04DX003 (ip), vehicle: saline
[9] = dose: 100.0 mg/kg/injection, schedule: Q04DX003 (ip), vehicle: saline
[10] = dose: 200.0 mg/kg/injection, schedule: Q04DX003 (ip), vehicle: saline
[11] = dose: 25.0 mg/kg/injection, schedule: Q01DX009 (ip), vehicle: saline
[12] = dose: 400.0 mg/kg/injection, schedule: Q04DX003 (ip), vehicle: saline sonified

CN(C)Cc1ccc([N+](=O)[O-])cc1
survivor count [1]: 2 of 6
survivor count (dose: 200.0 mg/kg/injection, schedule: Q01DX009 (ip), vehicle: saline): 0 of 6
survivor count [2]: 0 of 6

OC1C(c2ccccc2)=C(c2ccccc2)C2(c3ccccc3)CC12c1ccccc1 (stereo not drawn)
survivor count (dose: 100.0 mg/kg/injection, schedule: Q04DX003 (ip), vehicle: saline with Tween-80): 5 of 6
survivor count (dose: 200.0 mg/kg/injection, schedule: Q04DX003 (ip), vehicle: saline with Tween-80): 0 of 6
survivor count (dose: 400.0 mg/kg/injection, schedule: Q04DX003 (ip), vehicle: saline with Tween-80): 1 of 6

ClCC(Cl)CN1CCCCC1 (stereo not drawn)
survivor count [3]: 6 of 6
survivor count (dose: 75.0 mg/kg/injection, schedule: Q04DX003 (ip), vehicle: saline): 2 of 6
survivor count (dose: 115.0 mg/kg/injection, schedule: Q01DX009 (ip), vehicle: saline): 2 of 6
survivor count (dose: 115.0 mg/kg/injection, schedule: Q04DX003 (ip), vehicle: saline): 3 of 6
survivor count (dose: 170.0 mg/kg/injection, schedule: Q01DX009 (ip), vehicle: saline): 0 of 6
survivor count (dose: 170.0 mg/kg/injection, schedule: Q04DX003 (ip), vehicle: saline): 1 of 6

CC(=O)N1CCc2nc3ccccc3cc21
T/C [4]: 130 % of control
T/C [3]: 125 % of control
survivor count (dose: 150.0 mg/kg/injection, schedule: Q01DX009 (ip), vehicle: saline): 5 of 6

Cc1cc(=O)n(Cc2ccco2)c(=S)[nH]1
survivor count (dose: 200.0 mg/kg/injection, schedule: Q01DX005 (ip), vehicle: saline with Tween-80): 6 of 6

O=C(O)C1CC(c2ccccc2)OC1=O (stereo not drawn)
survivor count (dose: 400.0 mg/kg/injection, schedule: Q01DX009 (ip), vehicle: gum acacia): 5 of 6

N#Cc1ccccc1-n1c(=O)c2cc3c(=O)n(-c4ccccc4C#N)c(=O)c3cc2c1=O
T/C [5]: 126 % of control
T/C [6]: 128 % of control

N#CCCCCCCCC#N
survivor count (dose: 6.25 mg/kg/injection, schedule: Q04DX009 (ip), vehicle: saline): 1 of 6
survivor count (dose: 12.5 mg/kg/injection, schedule: Q04DX009 (ip), vehicle: saline): 0 of 6
survivor count (dose: 25.0 mg/kg/injection, schedule: Q04DX009 (ip), vehicle: saline): 0 of 6

O=[N+]([O-])c1ccc(NS(=O)(=O)c2cccs2)c([N+](=O)[O-])c1
survivor count [6]: 3 of 6
survivor count [7]: 3 of 6

CC(C)Cn1cnc2c(SCc3ccc(Cl)cc3Cl)nc(N)nc21
T/C (dose: 100.0 mg/kg/injection, schedule: Q01DX009 (ip), vehicle: gum acacia): 133 % of control
survivor count (dose: 400.0 mg/kg/injection, schedule: Q04DX003 (ip), vehicle: gum acacia): 6 of 6

CC(C)C(=O)OCC1OC(n2cnc3c(=S)nc[nH]c32)C(OC(=O)C(C)C)C1OC(=O)C(C)C (stereo not drawn)
T/C [7]: 127 % of control

CCCCCCCCCCCCCCCCOc1c(Br)cc(Br)cc1Br
survivor count (dose: 100.0 mg/kg/injection, schedule: Q01DX001 (ip), vehicle: saline with Tween-80): 6 of 6
survivor count (dose: 200.0 mg/kg/injection, schedule: Q01DX001 (ip), vehicle: saline with Tween-80): 6 of 6

CN1CCN(CCOC(=O)N2c3ccccc3Sc3ccccc32)CC1
survivor count (dose: 25.0 mg/kg/injection, schedule: Q04DX003 (ip), vehicle: saline): 6 of 6
survivor count [8]: 6 of 6
survivor count [9]: 5 of 6
survivor count [10]: 6 of 6

CCOC(=O)C(C(C)=O)C(C)C (stereo not drawn)
T/C (dose: 25.0 mg/kg/injection, schedule: Q01DX005 (ip), vehicle: other): 130 % of control
T/C (dose: 50.0 mg/kg/injection, schedule: Q01DX005 (ip), vehicle: other): 126 % of control

N#CC(C#N)=Cc1ccc2c(c1)CCC2
survivor count (dose: 19.0 mg/kg/injection, schedule: Q01DX009 (ip), vehicle: saline with Tween-80): 6 of 6
survivor count (dose: 75.0 mg/kg/injection, schedule: Q01DX009 (ip), vehicle: saline with Tween-80): 2 of 6

c1ccc(-c2cc3c(N4CCOCC4)nnc(N4CCOCC4)c3cn2)cc1
survivor count [7]: 6 of 6

CCN1/C(=C/C(C)=C/c2sc3ccccc3[n+]2CC)Sc2ccccc21
T/C (dose: 200.0 micrograms/kg/injection, schedule: Q01DX009 (ip), vehicle: Klucel (hydroxypropylcellulose) (HPC)): 125 % of control [5 of 6 alive]
survivor count (dose: 400.0 micrograms/kg/injection, schedule: Q01DX009 (ip), vehicle: Klucel (hydroxypropylcellulose) (HPC)): 1 of 6

CCOC(=O)C(N)C[S][Sn]([CH3])([CH3])[Cl] (stereo not drawn)
T/C [11]: 127 % of control
T/C (dose: 50.0 mg/kg/injection, schedule: Q01DX009 (ip), vehicle: saline): 142 % of control

O=C(Nc1ccc(C2=NCCCN2)cc1)c1ccc(C(=O)Nc2ccc(C3=NCCCN3)cc2)cc1
T/C (dose: 5.8 mg/kg/injection, schedule: Q04DX003 (ip), vehicle: saline with Tween-80): 143 % of control
survivor count (dose: 50.0 mg/kg/injection, schedule: Q04DX003 (ip), vehicle: other): 5 of 8

CCCCCCCCCCCCOc1ccccc1C=O
T/C [12]: 131 % of control

N/C(=N\Cl)C(Cl)(Cl)Cl
T/C [11]: 127 % of control
T/C [4]: 148 % of control
T/C [8]: 127 % of control
survivor count (dose: 56.3 mg/kg/injection, schedule: Q01DX009 (ip), vehicle: saline): 5 of 6 and 6 of 6

c1ccc(OCc2ccc(COc3ccccc3)cc2)cc1
survivor count (dose: 50.0 mg/kg/injection, schedule: Q01DX009 (ip), vehicle: Klucel (hydroxypropylcellulose) (HPC)): 6 of 6

CSc1ncnc2c1ncn2C1CCCO1 (stereo not drawn)
survivor count [10]: 3 of 6
survivor count (dose: 225.0 mg/kg/injection, schedule: Q01DX009 (ip), vehicle: Klucel (hydroxypropylcellulose) (HPC)): 4 of 6
survivor count (dose: 335.0 mg/kg/injection, schedule: Q01DX009 (ip), vehicle: Klucel (hydroxypropylcellulose) (HPC)): 1 of 6
survivor count [2]: 1 of 6

CC(=O)CC(C)(C)c1ccccc1
T/C [1]: 129 % of control [4 of 6 alive]
T/C (dose: 400.0 mg/kg/injection, schedule: Q01DX009 (ip), vehicle: saline): 139 % of control [5 of 6 alive]

CCCCCCCCOP(=O)(N1CC1)N1CC1
survivor count [1]: 6 of 6
survivor count [9]: 6 of 6
survivor count [10]: 3 of 6
survivor count [2]: 0 of 6

COC(=O)C12CCc3cc(OC)ccc3C1=CC(=O)C2 (stereo not drawn)
T/C [12]: 127 % of control

C=CC(=O)[O][Pb]([CH3])([CH3])[CH3]
survivor count (dose: 3.0 mg/kg/injection, schedule: Q01DX009 (ip), vehicle: saline): 6 of 6
survivor count (dose: 6.0 mg/kg/injection, schedule: Q01DX009 (ip), vehicle: saline): 6 of 6
survivor count (dose: 12.0 mg/kg/injection, schedule: Q01DX009 (ip), vehicle: saline): 6 of 6

Cc1nc[nH]c1[N+](=O)[O-]
survivor count [5]: 6 of 6
survivor count [6]: 2 of 6
survivor count [7]: 2 of 6

CC(C)(C)NCCC(O)c1cc2c(Cl)cc(Cl)cc2c2cc(C(F)(F)F)ccc12 (stereo not drawn)
survivor count [6]: 5 of 6
survivor count [7]: 1 of 6

C=C(C)C(=O)O[C@@H]1C[C@@]2(C)O[C@@H]2C[C@H](O)/C(C)=C/[C@H]2OC(=O)C(=C)[C@@H]21
T/C (dose: 24.0 mg/kg/injection, schedule: Q01DX009 (ip), vehicle: saline + alcohol): 127 % of control

COc1ccc2c(c1OC)C1(CCN(C)C)CC(=O)CCC1C=C2 (stereo not drawn)
survivor count (dose: 200.0 mg/kg/injection, schedule: Q04DX003 (ip), vehicle: Klucel (hydroxypropylcellulose) (HPC)): 6 of 6
survivor count (dose: 270.0 mg/kg/injection, schedule: Q01DX009 (ip), vehicle: Klucel (hydroxypropylcellulose) (HPC)): 0 of 6
survivor count (dose: 400.0 mg/kg/injection, schedule: Q04DX003 (ip), vehicle: Klucel (hydroxypropylcellulose) (HPC)): 0 of 6
